Experimental findings from US9555039B2, “Piperidine derivatives and compositions for the inhibition of nicotinamide phosphoribosyltransferase (NAMPT)” (Forma TM, LLC., priority 2011, dated 2017) are described below.

Sequences of proteins named here, by UniProt entry; tags and fusion partners are left off.
UniProt P43490, whole entry: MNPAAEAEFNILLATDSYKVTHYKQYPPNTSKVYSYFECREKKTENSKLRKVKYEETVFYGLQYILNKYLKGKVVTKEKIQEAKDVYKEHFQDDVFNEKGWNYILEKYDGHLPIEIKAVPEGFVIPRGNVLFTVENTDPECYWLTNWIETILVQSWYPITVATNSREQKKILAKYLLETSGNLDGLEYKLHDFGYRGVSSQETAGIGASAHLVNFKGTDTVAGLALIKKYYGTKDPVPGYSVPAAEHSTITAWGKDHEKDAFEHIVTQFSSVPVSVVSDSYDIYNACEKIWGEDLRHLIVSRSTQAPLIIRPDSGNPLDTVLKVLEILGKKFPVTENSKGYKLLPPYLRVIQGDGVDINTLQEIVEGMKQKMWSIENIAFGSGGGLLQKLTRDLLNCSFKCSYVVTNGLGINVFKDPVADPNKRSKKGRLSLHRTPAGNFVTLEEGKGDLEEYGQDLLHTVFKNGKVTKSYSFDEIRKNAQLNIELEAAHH

Structures were worked out from names or drawings and are uncertain.

In general, IC50 refers to the concentration that gives 50% inhibition.

One experiment has as its system A2780 cells. The experiment can be described thus: In-vitro cell proliferation assay (SRB, 72 hours). The format is cell-based. To be noted: read-out: A2780 IC50, sulforhodamine B (SRB) assay. In general terms: The SRB assay estimates cell density from bound dye.
Experiment [1] has as its target Recombinant His-tagged NAMPT (Homo sapiens, UniProt P43490). Description: Biochemical inhibition assay: NAMPT enzymatic reaction, NMN quantified by mass spectrometry. To be noted: read-out: Biochem IC50; 33 nM NAMPT, 1 μM NAM, 100 μM PRPP, 2.5 mM ATP, 30 minutes at room temperature.

For the molecule `O=C(NCCCCC1CCN(C(=O)c2ccccc2Cl)CC1)c1cc2ccncc2s1`, the IC50 came out at 1.7 nM with A2780 cells and 8.3 nM in experiment [1]. The corresponding values for `Cc1nc(C)c(C(=O)N2CCC(CCCCNC(=O)c3cc4ccncc4s3)CC2)s1` are 13 nM and 35.5 nM. With `CCOc1ncccc1C(=O)N1CCC(CCCCNC(=O)c2cc3ccncc3s2)CC1`, the half-inhibitory concentration (IC50) in experiment [1] was determined as 5.6 nM. `O=C(NCCCCC1CCN(C(=O)c2cc3ccncc3s2)CC1)c1cc2ccncc2s1`: the IC50 in the experiment on A2780 cells was 100 to 1000 nM; in experiment [1], 15.2 nM. The corresponding values for `COc1ccc(C(=O)N2CCC(CCCCNC(=O)c3cc4ccncc4s3)CC2)c(OC)c1` are 6.9 nM and 15.7 nM.
